HELM strings list residues between dots; [ac] is acetyl, [am] amide, other brackets name non-standard units.

The source of these data is paper PMC6863955 (Frontiers in Chemistry, 2019).

The nature of this series: peptide made by a vendor. Conditions: whole synthesis, RP-HPLC.

“PEPTIDE1{[Chex].R.P.D.K.P.R.P.Y.L.P.R.P.R.P.P.R.P.V.R.[am]}$$$$V2.0”: the “purity (crude or final not stated)” value was 97.3%.
